# PubChem BioAssay AID1347076 (National Center for Advancing Translational Sciences (NCATS), 2019)
# “And” between values parts separate entries of the source, which are not always exact repeats. Equal entries are not always repeated. The whole screen tested about 400,000 compounds, of which about 13,000 (3.2%) were called active. The inconclusive results got no clear call from the source; some entries with a clear call stand among them for comparison. The call rests on the fitted dose curve; in most records, active means well fitted cell-killing curve with a large enough effect; inconclusive means small, poorly fitted or top-dose-only effect, or effect the other way; inactive means flat fitted curve, though single readings scatter. Potencies of inconclusive entries are doubtful fits and often do not repeat. Some compounds were tested as several samples or in several runs, with calls that do not always agree.
# Assay: qHTS assay for MDR1-selective chemotherapeutics: Primary screen using the drug-selected MDR subline cells KB-V1; further: nearly all actives have a fitted effect of over 60% in size
# Settings: KB-V1 MDR cells viability, CellTiter-Glo, 72 h; activity change, negative = cytotoxicity: at 46.1 µM (top of the series)
# Procedure, shortened: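 Cells of the MDR subline KB-V1 are plated, dosed with compound at multiple concentrations, and incubated 72 h at 37 degrees C; CellTiter-Glo is then added and luminescence read after 10 min.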
# On the % scale 0 is the no-effect control and ±100 the full control effect; potency means the concentration at half of the fitted maximal effect.
Compound,Potency,"activity change, negative = cytotoxicity"
COC(=O)c1c(C)[nH]c(C)c1-c1ccc(C)cc1,"inconclusive: 18.4 µM [rising, single point]",–
O=C(NCCn1cc(SCc2ccccc2)c2ccccc21)c1cccs1,"inconclusive: 18.4 µM [cytotoxic, single point]",–
CCCc1cc(=O)[nH]c(Nc2ccccc2O)n1,–,inactive: -5.79%
NS(=O)(=O)c1ccc(CCNCc2cc(Br)ccc2OCc2ccccc2)cc1,"inconclusive: 18.4 µM [cytotoxic, single point]",–
CCc1nn2c(=O)cc(COC(=O)c3ccc4c(c3)OCO4)nc2s1,"inconclusive: 4.11 µM [rising, full curve, poor fit]",–
O=C1CCCN1c1ccc(S(=O)(=O)Oc2cccc(Cl)c2)cc1[N+](=O)[O-],"inconclusive: 16.4 µM [cytotoxic, single point]",–
Cc1ccccc1S(=O)(=O)Cc1ccc(C(=O)NCc2cccnc2)o1,"inconclusive: 29.1 µM [cytotoxic, single point]",–
CCCC(NCC(O)COc1ccc(-c2ccccc2)cc1)c1ccccc1 (stereo not given),"inconclusive: 29.1 µM [cytotoxic, partial curve, poor fit]",–
Cn1nnnc1Sc1ccc([N+](=O)[O-])cc1Cl,–,inactive: -12.8%
Cc1ccc(C)c(NC(=S)NNC(=O)c2csc(C)c2C)c1,–,inactive: -1.35%
CC(=O)c1cccc(NC(=O)c2ccc(Cl)c(S(=O)(=O)N3CCOCC3)c2)c1,–,inactive: -12.4%
Cc1ccc(C2C(C(=O)c3cccs3)=C(O)C(=O)N2c2cccc(C)n2)cc1 (stereo not given),–,inconclusive: -59.6%
Cc1cccc(N/C(N)=N/c2nc3c(c(=O)[nH]2)CCCC3)c1,"inconclusive: 20.6 µM [cytotoxic, partial curve]",–
COC1=CC(=O)OC(c2cccc(C#N)c2)C1 (stereo not given),–,inactive: -5.73%
COc1ccc(CN(C)C(=O)CNC(=O)CNC(=O)c2ccc(Cl)cc2Cl)cc1F,"inconclusive: 29.1 µM [rising, single point]",–
O=CNc1ccc2c3c(cccc13)-c1ccccc1-2,"inconclusive: 8.2 µM [cytotoxic, partial curve]",–
COc1ccc(-c2nc3ccc(Cl)cn3c2CC(C)(C)C)cc1OC,–,inactive: 0.535%
O=C(c1cccc(S(=O)(=O)NCc2ccccc2)c1)N1CCN(Cc2ccccc2)CC1,"inconclusive: 18.4 µM [cytotoxic, partial curve]",–
O=C(Nc1ccc(Cl)c(S(=O)(=O)N2CCOCC2)c1)c1cn2ccccc2n1,"inconclusive: 6.51 µM [cytotoxic, partial curve]",–
CCOC(=O)C1C(=O)NC(N2CCc3ccccc32)=NC1c1ccccc1 (stereo not given),"inconclusive: 23.1 µM [cytotoxic, partial curve]",–
CCOC(=O)c1cc2c(=O)n3ccccc3nc2n(CCOC)c1=NC(=O)c1cc2ccccc2o1,"inconclusive: 32.6 µM [rising, single point]",–
O=C(N/N=C/c1cc([N+](=O)[O-])cc(Br)c1O)C12CC3CCC(CC(C3)C1)C2,"inconclusive: 5.8 µM [cytotoxic, partial curve]",–
CC(=O)c1c(C)n(C)c2ccc(OC(=O)c3ccc([N+](=O)[O-])cc3)cc12,"inconclusive: 29.1 µM [rising, single point]",–
CC1=NNC(=O)C(CC(=O)Nc2ccc(Cl)c(Cl)c2)C1 (stereo not given),–,inactive: 8.5%

Compound,Potency,"activity change, negative = cytotoxicity"
Cc1ccc([N+](=O)[O-])cc1S(=O)(=O)N1CCN(C)CC1,"inconclusive: 3.66 µM [cytotoxic, partial curve]",–
COc1ccc(-c2cn(Cc3ccc(C(=O)c4ccccc4)cc3)nn2)cc1,active: 2.59 µM,–
O=C(Nc1ccc(Cl)cc1C(=O)O)c1ccc2c(c1)C(=O)N(Cc1ccco1)C2=O,"inconclusive: 6.51 µM [rising, partial curve]",–
O=C(NCc1ccc(Cl)cc1)N1CCN(Cc2ccccc2)CC1,active: 16.4 µM,–
Cc1ccc(-n2nnnc2SCC(=O)Nc2cccc(NC(=O)c3ccco3)c2)cc1C,"inconclusive: 23.1 µM [cytotoxic, partial curve, poor fit]",–
CCCCN(c1ccccc1)c1ncnc(N)c1[N+](=O)[O-],–,inactive: -2.89%
Cc1cccc(C)c1-n1nnnc1C(c1ccnc2ccccc12)N1CCN(C(=O)OC(C)(C)C)CC1 (stereo not given),"inconclusive: 29.1 µM [cytotoxic, partial curve, poor fit]",–
Cc1ccc(/C=C/C(=O)c2c(C)cc(C)[nH]c2=O)cc1,"inconclusive: 35.5 µM [cytotoxic, single point]",–
Nc1cc(N)cc(C(=O)c2ccccc2)c1,–,inactive: -3.76%
c1ccc(CC2CCN(Cc3ccccn3)CC2)cc1,–,inactive: 4.26%
COc1cccc(/C=N/n2c(SC)nnc2-c2ccccc2)c1O,"inconclusive: 18.4 µM [cytotoxic, partial curve, poor fit]",–
COc1ccc(-c2nnc(SCC(=O)N(C)C3CCS(=O)(=O)C3)n2CC(C)C)cc1 (stereo not given),"inconclusive: 29.1 µM [rising, single point]",–
Cc1cccc(NC(=O)c2cccc(C(F)(F)F)c2)c1,"inconclusive: 29.1 µM [rising, single point]",–
CCc1ccccc1NC(=S)N(Cc1ccc(OC)cc1)CC1CCC(C(=O)O)CC1 (stereo not given),–,inactive: 0.875%
COc1ccc(NC(=O)Nc2ccc3c(c2)C(=O)N([C@H](C)CO)C[C@H](C)[C@H](CN(C)Cc2ccc(C(=O)O)cc2)OCCCC[C@@H](C)O3)cc1,–,inactive: 20.9%
C=CCC[C@H](CCCCC)OC(=O)/C=C/[C@@H](O)[C@H](O)C[C@@H](O)CC=C,"inconclusive: 20.6 µM [cytotoxic, partial curve]",–
CN(C)C1=NCCN1CC1CCCCC1,–,inactive: 6.75%
Cc1cc(NC(=O)c2cccs2)n(-c2nc3ccccc3[nH]2)n1,"inconclusive: 11.6 µM [cytotoxic, partial curve]",–
O=C(Nc1cccc(-n2cccn2)c1)C1CCCN(Cc2ccc(C#CCCO)cc2)C1 (stereo not given),"inconclusive: 0.58 µM [cytotoxic, full curve, poor fit]",–
CCOC(=O)CN1Cc2cccc(C(=O)O)c2C1=O,"inconclusive: 10.3 µM [rising, partial curve, poor fit]",–
Cc1nn(C)cc1S(=O)(=O)N1CCCCC1C (stereo not given),"inconclusive: 18.4 µM [rising, single point]",–
CC1=C(/C=C/C(C)=C/C=C/C(C)=C/C(=O)Nc2ccc(O)cc2)C(C)(C)CCC1,"inconclusive: 18.4 µM [cytotoxic, single point] and inconclusive: 29.1 µM [cytotoxic, single point]",–
COc1ccc(S(=O)(=O)N2CCCCC2)cc1NC(=O)CCOc1cc(C)ccc1C,–,inactive: 0%
CCCCn1nnnc1C(c1ccccc1)N1CCN(c2cccc(C(F)(F)F)n2)CC1 (stereo not given),"inconclusive: 8.2 µM [cytotoxic, partial curve]",–

# 13 neighbouring records from above:
Compound,Potency,"activity change, negative = cytotoxicity"
COc1cccc(/C=N/n2c(SC)nnc2-c2ccccc2)c1O,"inconclusive: 18.4 µM [cytotoxic, partial curve, poor fit]",–
COc1ccc(-c2nnc(SCC(=O)N(C)C3CCS(=O)(=O)C3)n2CC(C)C)cc1 (stereo not given),"inconclusive: 29.1 µM [rising, single point]",–
Cc1cccc(NC(=O)c2cccc(C(F)(F)F)c2)c1,"inconclusive: 29.1 µM [rising, single point]",–
CCc1ccccc1NC(=S)N(Cc1ccc(OC)cc1)CC1CCC(C(=O)O)CC1 (stereo not given),–,inactive: 0.875%
COc1ccc(NC(=O)Nc2ccc3c(c2)C(=O)N([C@H](C)CO)C[C@H](C)[C@H](CN(C)Cc2ccc(C(=O)O)cc2)OCCCC[C@@H](C)O3)cc1,–,inactive: 20.9%
C=CCC[C@H](CCCCC)OC(=O)/C=C/[C@@H](O)[C@H](O)C[C@@H](O)CC=C,"inconclusive: 20.6 µM [cytotoxic, partial curve]",–
CN(C)C1=NCCN1CC1CCCCC1,–,inactive: 6.75%
Cc1cc(NC(=O)c2cccs2)n(-c2nc3ccccc3[nH]2)n1,"inconclusive: 11.6 µM [cytotoxic, partial curve]",–
O=C(Nc1cccc(-n2cccn2)c1)C1CCCN(Cc2ccc(C#CCCO)cc2)C1 (stereo not given),"inconclusive: 0.58 µM [cytotoxic, full curve, poor fit]",–
CCOC(=O)CN1Cc2cccc(C(=O)O)c2C1=O,"inconclusive: 10.3 µM [rising, partial curve, poor fit]",–
Cc1nn(C)cc1S(=O)(=O)N1CCCCC1C (stereo not given),"inconclusive: 18.4 µM [rising, single point]",–
CC1=C(/C=C/C(C)=C/C=C/C(C)=C/C(=O)Nc2ccc(O)cc2)C(C)(C)CCC1,"inconclusive: 18.4 µM [cytotoxic, single point] and inconclusive: 29.1 µM [cytotoxic, single point]",–
COc1ccc(S(=O)(=O)N2CCCCC2)cc1NC(=O)CCOc1cc(C)ccc1C,–,inactive: 0%

# Carrying on.

Compound,Potency,"activity change, negative = cytotoxicity"
Nc1[nH]n2c(=O)c3c(nc2c1N=Nc1ccc(Cl)cc1)CCCC3,"inconclusive: 29.1 µM [cytotoxic, single point]",–
CNC(=O)c1cc(C(=O)c2ccccc2C(F)(F)F)c[nH]1,–,inactive: -5.77%
N#CC1C(=N)Cc2ccccc2-c2ccccc21 (stereo not given),active: 14.6 µM,–
CCn1c2ccc(C)cc2c2nnc(SCCN3CCOCC3)nc21,"inconclusive: 4.11 µM [cytotoxic, partial curve]",–
O=C(Nc1ccc(C(=O)O)cc1)Nc1ccc([N+](=O)[O-])cc1,–,inactive: 26.3%
CC(C)CNC(=O)C1(C)CCCN1C(=O)CSc1ccccc1 (stereo not given),–,inactive: 2.38%
COc1ccc(N(CC(=O)NC2CCCCCC2)S(=O)(=O)c2ccc(C)cc2)cc1OC,"inconclusive: 1.46 µM [cytotoxic, full curve]",–
CC1(C)CC(=O)C(C=NCC2CCNCC2)=C(O)C1,"inconclusive: 23.1 µM [rising, single point]",–
CCOC(=O)CSc1nc(-c2ccc(F)cc2)cc(C(F)(F)F)c1C#N,"inconclusive: 29.1 µM [rising, single point]",–
O=C(C1CC(=O)N(c2ccccc2F)C1)N1CCOCC1 (stereo not given),–,inactive: 0.626%
Cc1ccc(O)c(NC(=S)NC(=O)CC(C)C)c1,–,inactive: -31.4%
CN(C)c1ccc(C(=O)Nc2c(C(=O)NC(C)(C)C)oc3ccccc23)cc1,–,inactive: 0%
O=C(NC1CCCCC1)C(c1ccc2ncccc2c1)N(Cc1ccc(F)cc1)C(=O)c1ccc2c(c1)OCCO2 (stereo not given),"inconclusive: 18.4 µM [cytotoxic, single point]",–
CCOC(=O)c1c(C)n(C)c2ccc(OC)c(NC(=O)CN3CCSCC3)c12,"inconclusive: 25.9 µM [cytotoxic, partial curve, poor fit]",–
COc1ccc(OC)c(C2=NOC(C(=O)N3CCCc4ccccc43)C2)c1 (stereo not given),active: 16.4 µM,–
Nc1ncnc2c1ncn2[C@@H]1O[C@H](CNS(=O)(=O)C2CC2)[C@@H](O)[C@H]1O,"inconclusive: 23.1 µM [rising, single point]",–
O=C(CN1CCN(S(=O)(=O)c2ccccc2)CC1)Nc1ccc(Cl)cn1,–,inactive: -8.78%
Cc1occc1-c1nnc(SCC(=O)Nc2ccccc2)n1C(C)c1ccccc1 (stereo not given),"inconclusive: 10 µM [cytotoxic, partial curve]",–
COc1ccc(Cl)cc1N=C1NC(=O)CC(C(=O)Nc2ccccc2C(F)(F)F)S1 (stereo not given),"inconclusive: 14.6 µM [cytotoxic, partial curve]",–
COC(=O)c1ccc(OC)c(CSc2nnc(COc3ccc(Cl)cc3)o2)c1,"inconclusive: 29.1 µM [cytotoxic, single point]",–
CCn1c(C(=O)N2CCC(C(=O)N3CCN(c4ccc(OC)cc4)CC3)CC2)cc2sccc21,–,inactive: -0.503%
CC(C)(C)OC(=O)N1CCC(c2c(C(=O)NCc3ccccc3)cnn2-c2ccc(F)cc2)CC1,–,inactive: -13.1%
